Measured values taken from PubChem BioAssay.
This is one part of the list. Entries without a call are filed as inconclusive in the source.

Assay: protection against mutant huntingtin cytotoxicity, PC12 cells, LDH release (AID 1610)
Details: PC12 mutant huntingtin toxicity; at 100 µM (top of the series)

Structure (SMILES) | normalised LDH release, lower = protection
CCCCOc1ccc(C(=O)CCN2CCCCC2)cc1 | 0.738
NC(=O)c1cc[n+](CC2=C(C(=O)O)N3C(=O)C(NC(=O)C(c4ccccc4)S(=O)(=O)[O-])C3SC2)cc1 (stereo not given) | 0.951
CCN(CC)CCOC(=O)C1(C2CCCCC2)CCCCC1 | 0.78
CN/C(=C\[N+](=O)[O-])NCCSCc1ccc(CN(C)C)o1 | 0.78
CC(=O)N(O)CCCCCNC(=O)CCC(=O)N(O)CCCCCNC(=O)CCC(=O)N(O)CCCCCN | 0.514
CC(=O)[C@H]1CCC2C3C[C@H](C)C4=CC(=O)CC[C@]4(C)C3[C@@H](O)C[C@@]21C (stereo not given in full) | 0.195
CC[C@H]1OC(=O)[C@H](C)[C@@H](O[C@H]2C[C@@](C)(OC)[C@@H](O)[C@H](C)O2)[C@H](C)[C@@H](O[C@@H]2O[C@H](C)C[C@H](N(C)C)[C@H]2O)[C@](C)(O)C[C@@H](C)/C(=N\OCOCCOC)[C@H](C)[C@@H](O)[C@]1(C)O | 0.768
CN(C)CCCN1c2ccccc2CCc2ccccc21 | 0.392
Cc1c(NC(=O)c2cccnc2)c(=O)n(-c2ccccc2)n1C | 0.727
CCCOc1ccccc1-c1nc2n[nH]nc2c(=O)[nH]1 | 0.542
O=C(O)c1cc(=O)c2c(OCC(O)COc3cccc4oc(C(=O)O)cc(=O)c34)cccc2o1 | 1.03
Nc1ncnc2c1ncn2[C@@H]1O[C@H](CO)[C@@H](O)[C@@H]1O | 1.07
Clc1ccccc1C(c1ccccc1)(c1ccccc1)n1ccnc1 | 1.05
CCn1cc(C(=O)O)c(=O)c2cnc(N3CCNCC3)nc21 | 0.912
COc1cc(OC)c2ccc(=O)oc2c1 | 1.07
COc1cc(NS(=O)(=O)c2ccc(N)cc2)nc(OC)n1 | 0.889
CN(C)CCCN1c2ccccc2Sc2ccccc21 | 1.62
NC(=O)N1c2ccccc2C=Cc2ccccc21 | 0.787
CC(=O)NC1SCCC1=O (stereo not given) | 0.785
CO[C@H]1C[C@H](O[C@H]2[C@H](C)[C@@H](OC3O[C@H](C)C[C@H](N(C)C)[C@H]3O)[C@@H](C)C[C@]3(CO3)C(=O)[C@H](C)[C@@H](O)[C@@H](C)[C@@H](C)OC(=O)[C@@H]2C)O[C@@H](C)[C@@H]1O (stereo not given in full) | 1.11

Random excerpt: 2 compounds from above, in no set order.
Structure (SMILES) | normalised LDH release, lower = protection
CC(=O)N(O)CCCCCNC(=O)CCC(=O)N(O)CCCCCNC(=O)CCC(=O)N(O)CCCCCN | 0.514
CCN(CC)CCOC(=O)C1(C2CCCCC2)CCCCC1 | 0.78
